Measured values taken from patent US20220119489A1, “COMPOSITIONS AND METHODS FOR […] […] DYSTROPHY AND RELATED DISORDERS” (CHILDREN'S MEDICAL CENTER CORPORATION, published 2022).

Target: CD82 (mouse) (mouse, UniProt P40237)
Assay: IP with anti CD82 antibodies, mouse muscle tissue, mass spectrometry

B1: VIME_MOUSE (other)
chain: STRSVSSSSYRRMFGGSGTSSRPSSNRSYVTTSTRTYSLGSALRPSTSRSLYSSSPGGAYVTRSSAVRLRSSVPGVRLLQDSVDFSLADAINTEFKNTRTNEKVELQELNDRFANYIDKVRFLEQQNKILLAELEQLKGQGKSRLGDLYEEEMRELRRQVDQLTNDKARVEVERDNLAEDIMRLREKLQEEMLQREEAESTLQSFRQDVDNASLARLDLERKVESLQEEIAFLKKLHDEEIQELQAQIQEQHVQIDVDVSKPDLTAALRDVRQQYESVAAKNLQEAEEWYKSKFADLSEAANRNNDALRQAKQESNEYRRQVQSLTCEVDALKGTNESLERQMREMEENFALEAANYQDTIGRLQDEIQNMKEEMARHLREYQDLLNVKMALDIEIATYRKLLEGEESRISLPLPTFSSLNLRETNLESLPLVDTHSKRTLLIKTVETRDGQVINETSQHHDDLE
For B1, the Total was 2 and the Unique was 2.
